# Results from patent US9226500B2, “Pesticidal compositions and processes related thereto” (Dow AgroSciences LLC, priority 2012, dated 2016).
# At least one read-out could not be matched to a standard name with certainty. Some ranges recur; such a range may be that of the whole group of compounds.
# Assays:
# [1] = test system: Cabbage Looper (Trichoplusia ni); experiment: Bioassay on Cabbage Looper (CL), 128-well diet tray assay; assay type: in vivo; conditions: Table 5, Prophetic Compounds Subsequently Exemplified
# Protocol: (§1) Certain molecules disclosed in this document were tested against BAW, CEW and CL using procedures described in the following examples. In the reporting of the results, the “BAW & CEW & CL Rating Table” was used (See Table Section).
# Bioassays on CL (Trichoplusia ni)
# Bioassays on CL were conducted using a 128-well diet tray assay. One to five second instar CL larvae were placed in each well (3 mL) of the diet tray that had been previously filled with 1 mL of artificial diet to which 50 μg/cm^2 of the test compound (dissolved in 50 μL of 90:10 acetone-water mixture) had been applied (to each of eight wells) and then allowed to dry. Trays were covered with a clear self-adhesive cover, and held at 25° C., 14:10 light-dark for five to seven days. Percent mortality was recorded for the larvae in each well; activity in the eight wells was then averaged.
# “Table 4: Assay Results Part 2” (See Table Section).
# [2] = test system: Beet Armyworm (Spodoptera exigua); experiment: Bioassay on Beet Armyworm (BAW), 128-well diet tray assay; assay type: in vivo; conditions: Table 5, Prophetic Compounds Subsequently Exemplified
# Protocol: as §1
# Bioassays on BAW (Spodoptera exigua)
# Bioassays on BAW were conducted using a 128-well diet tray assay. One to five second instar BAW larvae were placed in each well (3 mL) of the diet tray that had been previously filled with 1 mL of artificial diet to which 50 μg/cm^2 of the test compound (dissolved in 50 μL of 90:10 acetone-water mixture) had been applied (to each of eight wells) and then allowed to dry. Trays were covered with a clear self-adhesive cover, and held at 25° C., 14:10 light-dark for five to seven days. Percent mortality was recorded for the larvae in each well; activity in the eight wells was then averaged. The results are indicated in the tables entitled “Table 3: Assay Results Part 1” and “Table 4: Assay Results Part 2” (See Table Section).
Structure (SMILES),CL Rating [1],BAW Rating [2]
O=C(CNC(=O)c1ccc(/C=C/C(c2cccc(C(F)(F)F)c2)C(F)(F)F)cc1Br)NCC(F)(F)F (stereo not shown) [Compound P1],A (50-100),A (50-100)
N#Cc1c(F)cc(C(/C=C/c2ccc(C(=O)NCC(=O)NCC(F)(F)F)c(Br)c2)C(F)(F)F)cc1F (stereo not shown) [Compound P2],A (50-100),–
CSc1cc(/C=C/C(c2cc(Cl)c(F)c(Cl)c2)C(F)(F)F)ccc1C(=O)NCC(=O)NCC(F)(F)F (stereo not shown) [Compound P12],A (50-100),A (50-100)
Fc1c(Cl)cc(C(/C=C/c2ccc(C(=S)NCC(=S)NCC(F)(F)F)c(Br)c2)C(F)(F)F)cc1Cl (stereo not shown) [Compound P14],A (50-100),B (More than 0-Less than 50)
Cc1cc(/C=C/C(c2cc(Cl)c(Cl)c(Cl)c2)C(F)(F)F)ccc1C(=S)NCC(=S)NCC(F)(F)F (stereo not shown) [Compound P15],A (50-100),A (50-100)
C[C@@H](NC(=O)c1ccc(/C=C/C(c2ccc(F)c(F)c2F)C(F)(F)F)cc1Br)C(=O)NCC(F)(F)F (stereo partly shown) [Compound P82],A (50-100),A (50-100)
C[C@@H](NC(=O)c1ccc(/C=C/C(c2ccc(F)c(F)c2F)C(F)(F)F)cc1C(F)(F)F)C(=O)NCC(F)(F)F (stereo partly shown) [Compound P84],A (50-100),A (50-100)
C[C@@H](NC(=O)c1ccc(/C=C/C(c2cc(Cl)c(Cl)cc2Cl)C(F)(F)F)cc1Br)C(=O)NCC(F)(F)F (stereo partly shown) [Compound P156],A (50-100),A (50-100)
C[C@@H](NC(=O)c1ccc(/C=C/C(c2cccc(OC(F)(F)F)c2)C(F)(F)F)cc1Br)C(=O)NCC(F)(F)F (stereo partly shown) [Compound P226],A (50-100),A (50-100)
C[C@@H](NC(=O)c1ccc(/C=C/C(c2cccc(OC(F)(F)F)c2)C(F)(F)F)cc1C(F)(F)F)C(=O)NCC(F)(F)F (stereo partly shown) [Compound P228],A (50-100),A (50-100)
C[C@@H](NC(=O)c1ccc(/C=C/C(c2cc(F)cc(Br)c2)C(F)(F)F)cc1Br)C(=O)NCC(F)(F)F (stereo partly shown) [Compound P298],A (50-100),–
C[C@@H](NC(=O)c1ccc(/C=C/C(c2cc(F)cc(Br)c2)C(F)(F)F)cc1C(F)(F)F)C(=O)NCC(F)(F)F (stereo partly shown) [Compound P300],A (50-100),A (50-100)
Cc1ccc(C(/C=C/c2ccc(C(=O)N[C@H](C)C(=O)NCC(F)(F)F)c(Br)c2)C(F)(F)F)cc1Cl (stereo partly shown) [Compound P442],A (50-100),A (50-100)
Cc1ccc(C(/C=C/c2ccc(C(=O)N[C@H](C)C(=O)NCC(F)(F)F)c(C(F)(F)F)c2)C(F)(F)F)cc1Cl (stereo partly shown) [Compound P444],A (50-100),A (50-100)
Cc1cc(C(/C=C/c2ccc(C(=O)N[C@H](C)C(=O)NCC(F)(F)F)c(Br)c2)C(F)(F)F)cc(C)c1F (stereo partly shown) [Compound P514],A (50-100),A (50-100)
Cc1cc(C(/C=C/c2ccc(C(=O)N[C@H](C)C(=O)NCC(F)(F)F)c(C(F)(F)F)c2)C(F)(F)F)cc(C)c1F (stereo partly shown) [Compound P516],A (50-100),A (50-100)
C[C@@H](NC(=O)c1ccc(/C=C/C(c2ccc(Br)c(Br)c2)C(F)(F)F)cc1Br)C(=O)NCC(F)(F)F (stereo partly shown) [Compound P568],A (50-100),A (50-100)
C[C@@H](NC(=O)c1ccc(/C=C/C(c2cc(Cl)cc(Br)c2)C(F)(F)F)cc1Br)C(=O)NCC(F)(F)F (stereo partly shown) [Compound P586],A (50-100),A (50-100)
C[C@@H](NC(=O)c1ccc(/C=C/C(c2cc(Cl)cc(Br)c2)C(F)(F)F)cc1C(F)(F)F)C(=O)NCC(F)(F)F (stereo partly shown) [Compound P588],A (50-100),A (50-100)
C[C@@H](NC(=O)c1ccc(/C=C/C(c2ccc(Br)c(Br)c2)C(F)(F)F)cc1C(F)(F)F)C(=O)NCC(F)(F)F (stereo partly shown) [Compound P660],A (50-100),A (50-100)
C[C@@H](NC(=O)c1ccc(/C=C/C(c2ccc(Cl)c([N+](=O)[O-])c2)C(F)(F)F)cc1Br)C(=O)NCC(F)(F)F (stereo partly shown) [Compound P730],A (50-100),A (50-100)
C[C@@H](NC(=O)c1ccc(/C=C/C(c2ccc(Cl)c([N+](=O)[O-])c2)C(F)(F)F)cc1C(F)(F)F)C(=O)NCC(F)(F)F (stereo partly shown) [Compound P732],A (50-100),A (50-100)

Structure (SMILES),CL Rating [1],BAW Rating [2]
C[C@@H](NC(=O)c1ccc(/C=C/C(c2ccc(F)c(C#N)c2)C(F)(F)F)cc1Br)C(=O)NCC(F)(F)F (stereo partly shown) [Compound P802],A (50-100),A (50-100)
C[C@@H](NC(=O)c1ccc(/C=C/C(c2ccc(F)c(C#N)c2)C(F)(F)F)cc1C(F)(F)F)C(=O)NCC(F)(F)F (stereo partly shown) [Compound P804],A (50-100),A (50-100)
Cc1cc(C(/C=C/c2ccc(C(=O)N[C@H](C)C(=O)NCC(F)(F)F)c(Br)c2)C(F)(F)F)ccc1F (stereo partly shown) [Compound P1090],A (50-100),A (50-100)
Cc1cc(C(/C=C/c2ccc(C(=O)N[C@H](C)C(=O)NCC(F)(F)F)c(C(F)(F)F)c2)C(F)(F)F)ccc1F (stereo partly shown) [Compound P1092],A (50-100),A (50-100)
O=C(CNC(=O)c1ccc(/C=C/C(c2cc(F)c(F)c(F)c2)C(F)(F)F)cc1Br)NCC(F)(F)F (stereo not shown) [Compound P1197],A (50-100),A (50-100)
O=C(CNC(=O)c1ccc(/C=C/C(c2cc(C(F)(F)F)cc(C(F)(F)F)c2)C(F)(F)F)cc1Br)NCC(F)(F)F (stereo not shown) [Compound P1269],A (50-100),A (50-100)
O=C(CNC(=O)c1ccc(/C=C/C(c2cc(F)cc(C(F)(F)F)c2)C(F)(F)F)cc1Br)NCC(F)(F)F (stereo not shown) [Compound P1340],A (50-100),A (50-100)
O=C(CNC(=O)c1ccc(/C=C/C(c2cc(Cl)cc(C(F)(F)F)c2)C(F)(F)F)cc1Br)NCC(F)(F)F (stereo not shown) [Compound P1411],A (50-100),A (50-100)
O=C(CNC(=O)c1ccc(/C=C/C(c2ccc(F)c(C(F)(F)F)c2)C(F)(F)F)cc1Br)NCC(F)(F)F (stereo not shown) [Compound P1483],A (50-100),A (50-100)
O=C(CNC(=O)c1ccc(/C=C/C(c2cc(Cl)c(Cl)c(Cl)c2)C(F)(F)F)cc1C(F)(F)F)NCC(F)(F)F (stereo not shown) [Compound P1556],A (50-100),A (50-100)
O=C(NCC(=S)NCC(F)(F)F)c1ccc(/C=C/C(c2cc(Cl)c(Cl)c(Cl)c2)C(F)(F)F)cc1Cl (stereo not shown) [Compound P1558],A (50-100),A (50-100)
O=C(NCC(=S)NCC(F)(F)F)c1ccc(/C=C/C(c2cc(Cl)c(Cl)c(Cl)c2)C(F)(F)F)cc1C(F)(F)F (stereo not shown) [Compound P1559],A (50-100),A (50-100)
Cc1cc(/C=C/C(c2cc(Cl)c(Cl)c(Cl)c2)C(F)(F)F)ccc1C(=O)NCC(=S)NCC(F)(F)F (stereo not shown) [Compound P1560],A (50-100),A (50-100)
Cc1cc(/C=C/C(c2cc(Cl)c(Cl)c(Cl)c2)C(F)(F)F)ccc1C(=S)NCC(=O)NCC(F)(F)F (stereo not shown) [Compound P1564],A (50-100),A (50-100)
O=C(CNC(=O)c1ccc(/C=C/C(c2cc(Cl)c(Cl)c(Cl)c2)C(F)(F)F)cc1C(F)(F)F)NCC(F)F (stereo not shown) [Compound P1566],A (50-100),A (50-100)
CC(NC(=O)CNC(=O)c1ccc(/C=C/C(c2cc(Cl)c(Cl)c(Cl)c2)C(F)(F)F)cc1Br)C(F)(F)F (stereo not shown) [Compound P1589],A (50-100),A (50-100)
CC(NC(=O)CNC(=O)c1ccc(/C=C/C(c2cc(Cl)c(Cl)c(Cl)c2)C(F)(F)F)cc1C(F)(F)F)C(F)(F)F (stereo not shown) [Compound P1591],A (50-100),A (50-100)
Cc1cc(/C=C/C(c2cc(Cl)c(Cl)c(Cl)c2)C(F)(F)F)ccc1C(=O)NCC(=O)NC(C)C(F)(F)F (stereo not shown) [Compound P1592],A (50-100),A (50-100)
C[C@@H](NC(=O)c1ccc(/C=C/C(c2cc(Cl)c(Cl)c(Cl)c2)C(F)(F)C(F)(F)F)cc1Br)C(=O)NCC(F)(F)F (stereo partly shown) [Compound P1599],A (50-100),A (50-100)
C[C@@H](NC(=O)c1ccc(/C=C/C(c2cc(Cl)c(Cl)c(Cl)c2)C(F)(F)C(F)(F)F)cc1C(F)(F)F)C(=O)NCC(F)(F)F (stereo partly shown) [Compound P1601],A (50-100),A (50-100)
C[C@@H](NC(=O)c1ccc(/C=C/C(c2cc(Cl)c(Cl)c(Cl)c2)C(F)(F)F)cc1)C(=O)NCC(F)(F)F (stereo partly shown) [Compound P1603],A (50-100),A (50-100)
O=C(CCNC(=O)c1ccc(/C=C/C(c2cc(Cl)c(Cl)c(Cl)c2)C(F)(F)F)cc1C(F)(F)F)NCC(F)(F)F (stereo not shown) [Compound P1640],A (50-100),–
